No constants are given. Whether binding was seen depends on the method and setting. Binding seen in cells or lysates may run through a third protein. Some entries that bind do so weakly or less than the wild type.
B1: RPUSD4 (enzyme, UniProt Q96CM3 16-377)
chain: NGQGCGSLFTLVSKPFCAAAAASTAINAQRLAEKLRAQKREQDTKKEPVSTNAVQRRVQEIVRFTRQLQRVHPNVLAKALTRGILHQDKNLVVINKPYGLPVHGGPGVQLCITDVLPILAKMLHGHKAEPLHLCHRLDKETTGVMVLAWDKDMAHQVQELFRTRQVVKKYWAITVHVPMPSAGVVDIPIVEKEAQGQQQHHKMTLSPSYRMDDGKMVKVRRSRNAQVAVTQYQVLSSTLSSALVELQPITGIKHQLRVHLSFGLDCPILGDHKYSDWNRLAPQKLSVGTLKKLGLEQSKARYIPLHLHARQLILPALGSGKEELNLVCKLPRFFVHSLHRLRLEMPNEDQNENNEAKCLGAQ
B2: MTG2 (enzyme, UniProt Q9H4K7 1-406)
chain: MAPARCFSARLRTVFQGVGHWALSTWAGLKPSRLLPQRASPRLLSVGRADLAKHQELPGKKLLSEKKLKRYFVDYRRVLVCGGNGGAGASCFHSEPRKEFGGPDGGDGGNGGHVILRVDQQVKSLSSVLSRYQGFSGEDGGSKNCFGRSGAVLYIRVPVGTLVKEGGRVVADLSCVGDEYIAALGGAGGKGNRFFLANNNRAPVTCTPGQPGQQRVLHLELKTVAHAGMVGFPNAGKSSLLRAISNARPAVASYPFTTLKPHVGIVHYEGHLQIAVADIPGIIRGAHQNRGLGSAFLRHIERCRFLLFVVDLSQPEPWTQVDDLKYELEMYEKGLSARPHAIVANKIDLPEAQANLSQLRDHLGQEVIVLSALTGENLEQLLLHLKVLYDAYAEAELGQGRQPLRW
B3: TRUB2 (enzyme, UniProt O95900 11-331)
chain: GLFAVYKPPGLKWKHLRDTVELQLLKGLNARKPPAPKQRVRFLLGPMEGSEEKELTLTATSVPSFINHPLVCGPAFAHLKVGVGHRLDAQASGVLVLGVGHGCRLLTDMYNAHLTKDYTVRGLLGKATDDFREDGRLVEKTTYDHVTREKLDRILAVIQGSHQKALVMYSNLDLKTQEAYEMAVRGLIRPMNKSPMLITGIRCLYFAPPEFLLEVQCMHETQKELRKLVHEIGLELKTTAVCTQVRRTRDGFFTLDSALLRTQWDLTNIQDAIRAATPQVAAELEKSLSPGLDTKQLPSPGWSWDSQGPSSTLGLERGAGQ

Sequences of proteins named here, by UniProt entry; tags and fusion partners are left off. Residues count along the entry.
UniProt Q96I51, residues 38-464: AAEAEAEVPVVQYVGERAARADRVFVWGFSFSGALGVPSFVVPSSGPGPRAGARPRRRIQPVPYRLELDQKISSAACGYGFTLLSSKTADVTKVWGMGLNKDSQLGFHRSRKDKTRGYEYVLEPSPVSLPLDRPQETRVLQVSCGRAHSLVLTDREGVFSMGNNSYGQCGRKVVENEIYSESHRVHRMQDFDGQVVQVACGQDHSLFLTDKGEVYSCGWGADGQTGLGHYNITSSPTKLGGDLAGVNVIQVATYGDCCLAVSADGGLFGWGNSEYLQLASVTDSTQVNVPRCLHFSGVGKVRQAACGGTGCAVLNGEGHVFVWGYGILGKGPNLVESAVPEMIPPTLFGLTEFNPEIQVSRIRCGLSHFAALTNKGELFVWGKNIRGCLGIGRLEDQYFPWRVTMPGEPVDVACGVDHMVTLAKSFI

Each binder was assayed against STREP2-FLAG-tagged RCC1L^V1 (human) (UniProt Q96I51) (assay: co-IP; STREP2-FLAG-tagged RCC1L isoform as bait, captured on Strep-Tactin Sepharose overnight from trypsin-treated, sucrose gradient-purified HEK mitochondria lysed with 0.8% DDM; 10 washes; elution with 10 mM desthiobiotin; endogenous proteins in the elution found by immunoblot).

binding, binds:
B1
B2
B3

— article PMC7423155
